From paper PMC12317070
Results are given in words; binding and its absence hold for the method and conditions named. Binding seen in cells or lysates may run through a third protein. Some results given as binding are weak or reduced against the parent protein; the word gives no strength.

Chains of the proteins cited; added tags and fusions are not shown. Lines headed by an entry give the natural chain unless they say otherwise; changes in a name come on top. Residues count along the entry.
UniProt P56962: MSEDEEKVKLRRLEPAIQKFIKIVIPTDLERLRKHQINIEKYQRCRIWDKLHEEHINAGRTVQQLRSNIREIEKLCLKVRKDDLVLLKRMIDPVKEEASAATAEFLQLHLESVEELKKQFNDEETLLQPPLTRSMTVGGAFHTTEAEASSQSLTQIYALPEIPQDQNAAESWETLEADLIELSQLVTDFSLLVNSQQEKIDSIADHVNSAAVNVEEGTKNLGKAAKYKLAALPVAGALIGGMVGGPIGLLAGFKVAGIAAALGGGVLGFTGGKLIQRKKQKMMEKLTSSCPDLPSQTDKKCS
GST-STX17 (amino acids 1-224): residues 1-224 of P56962
UniProt O95721: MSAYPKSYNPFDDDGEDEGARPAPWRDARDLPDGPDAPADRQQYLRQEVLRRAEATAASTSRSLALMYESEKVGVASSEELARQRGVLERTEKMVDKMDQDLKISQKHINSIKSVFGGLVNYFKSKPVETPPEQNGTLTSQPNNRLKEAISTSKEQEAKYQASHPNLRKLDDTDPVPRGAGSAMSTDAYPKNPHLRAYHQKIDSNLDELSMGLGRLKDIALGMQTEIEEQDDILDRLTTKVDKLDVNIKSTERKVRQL
UniProt Q8TDY2: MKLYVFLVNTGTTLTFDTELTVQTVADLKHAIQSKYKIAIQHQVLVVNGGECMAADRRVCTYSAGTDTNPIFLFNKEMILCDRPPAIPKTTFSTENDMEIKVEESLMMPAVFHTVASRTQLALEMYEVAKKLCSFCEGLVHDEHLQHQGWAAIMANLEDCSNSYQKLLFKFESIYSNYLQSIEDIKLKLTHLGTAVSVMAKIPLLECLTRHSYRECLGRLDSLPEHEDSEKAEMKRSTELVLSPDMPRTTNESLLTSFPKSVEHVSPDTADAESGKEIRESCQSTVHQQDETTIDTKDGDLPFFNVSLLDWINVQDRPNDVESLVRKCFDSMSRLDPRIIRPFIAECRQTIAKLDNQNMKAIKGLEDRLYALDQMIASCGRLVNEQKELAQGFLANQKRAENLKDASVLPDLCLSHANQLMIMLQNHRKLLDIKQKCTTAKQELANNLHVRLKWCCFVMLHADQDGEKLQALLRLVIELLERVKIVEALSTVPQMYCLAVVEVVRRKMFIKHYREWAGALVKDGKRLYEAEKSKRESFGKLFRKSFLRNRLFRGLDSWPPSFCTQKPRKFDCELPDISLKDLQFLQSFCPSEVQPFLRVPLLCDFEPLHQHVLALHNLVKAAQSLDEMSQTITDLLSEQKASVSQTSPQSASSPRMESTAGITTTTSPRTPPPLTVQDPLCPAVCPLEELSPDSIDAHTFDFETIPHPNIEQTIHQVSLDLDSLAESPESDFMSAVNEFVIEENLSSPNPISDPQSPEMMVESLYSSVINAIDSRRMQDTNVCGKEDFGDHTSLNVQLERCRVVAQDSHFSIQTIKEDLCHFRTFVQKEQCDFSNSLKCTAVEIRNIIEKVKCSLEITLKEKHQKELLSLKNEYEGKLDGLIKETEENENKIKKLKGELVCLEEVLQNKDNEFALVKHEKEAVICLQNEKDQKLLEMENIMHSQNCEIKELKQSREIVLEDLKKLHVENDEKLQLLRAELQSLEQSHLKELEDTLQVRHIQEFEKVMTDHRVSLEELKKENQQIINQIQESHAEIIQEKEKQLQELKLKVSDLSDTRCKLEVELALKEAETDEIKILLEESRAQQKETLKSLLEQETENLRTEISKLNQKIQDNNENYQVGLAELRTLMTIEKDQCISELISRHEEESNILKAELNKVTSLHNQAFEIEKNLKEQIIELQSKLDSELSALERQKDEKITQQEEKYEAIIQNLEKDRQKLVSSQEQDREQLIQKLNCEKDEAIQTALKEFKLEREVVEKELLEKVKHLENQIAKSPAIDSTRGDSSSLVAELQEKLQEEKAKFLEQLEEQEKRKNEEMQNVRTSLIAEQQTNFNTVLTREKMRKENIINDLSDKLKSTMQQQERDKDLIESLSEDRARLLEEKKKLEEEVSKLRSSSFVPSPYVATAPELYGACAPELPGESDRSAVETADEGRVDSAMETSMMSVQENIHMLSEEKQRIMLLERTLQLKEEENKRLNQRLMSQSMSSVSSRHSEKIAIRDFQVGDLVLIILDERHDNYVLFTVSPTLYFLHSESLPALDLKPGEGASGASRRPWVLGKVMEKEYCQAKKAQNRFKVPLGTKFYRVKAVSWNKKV
UniProt Q6ZNE5: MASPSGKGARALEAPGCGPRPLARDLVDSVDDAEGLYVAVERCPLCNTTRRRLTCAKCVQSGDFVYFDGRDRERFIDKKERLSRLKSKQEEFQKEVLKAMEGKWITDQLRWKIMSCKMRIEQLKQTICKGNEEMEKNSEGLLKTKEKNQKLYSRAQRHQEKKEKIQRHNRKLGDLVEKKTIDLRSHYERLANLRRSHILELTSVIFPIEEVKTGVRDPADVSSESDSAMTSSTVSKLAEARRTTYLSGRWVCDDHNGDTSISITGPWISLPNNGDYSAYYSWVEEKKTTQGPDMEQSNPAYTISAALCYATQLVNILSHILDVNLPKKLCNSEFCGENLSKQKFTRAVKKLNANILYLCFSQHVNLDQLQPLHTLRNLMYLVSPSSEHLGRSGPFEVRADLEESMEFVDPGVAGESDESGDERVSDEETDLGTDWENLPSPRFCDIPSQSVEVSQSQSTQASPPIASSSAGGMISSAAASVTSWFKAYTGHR
UniProt Q14457: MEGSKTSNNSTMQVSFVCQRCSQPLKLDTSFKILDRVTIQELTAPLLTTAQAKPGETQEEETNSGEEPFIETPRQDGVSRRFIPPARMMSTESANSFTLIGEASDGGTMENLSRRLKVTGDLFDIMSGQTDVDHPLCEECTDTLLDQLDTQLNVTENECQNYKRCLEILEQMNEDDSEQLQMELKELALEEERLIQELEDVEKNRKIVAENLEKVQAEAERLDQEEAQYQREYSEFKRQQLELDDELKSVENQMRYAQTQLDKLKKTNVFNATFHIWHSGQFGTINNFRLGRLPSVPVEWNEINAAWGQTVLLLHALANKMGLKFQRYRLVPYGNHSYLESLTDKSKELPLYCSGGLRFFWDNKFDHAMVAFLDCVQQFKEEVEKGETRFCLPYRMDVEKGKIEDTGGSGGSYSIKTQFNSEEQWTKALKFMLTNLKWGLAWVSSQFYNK

What was measured:
[1] = target: GST-STX17 (amino acids 1-224) (UniProt P56962); test: pull-down; only the target purified
[2] = target: SNAP29 (untagged, purified) (UniProt O95721); test: co-IP; only the target purified

binding [1]	binding [2]	Substance
no binding		FIP200 (from UniProt Q8TDY2 1-1594)
	binds	ATG14L (endogenous) (from UniProt Q6ZNE5 1-492)
	binds	STX17 (endogenous) (from UniProt P56962 1-302)
no binding		Beclin1 (from UniProt Q14457 1-450)
